Assay results taken from the supplement of paper PMC12823440, “Inhibitors supercharge kinase turnover through native proteolytic circuits” (Nature, 2025).
Structures can show the parent of a compound that is named as a salt. The list shows a part of the results. The calls rarely recur for the same compound in another form.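 Kinases, fused to nanoluciferase, were expressed in K562 cells; luminescence was measured every 4 h from 2 to 18 h as percent of control (DMSO = 100%, positive control = 0%). A time point is decreased if signal falls significantly (2 sigma). Hits were called by the authors by a rule that is not shown; the count of time points alone does not decide it.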

By UniProt entry, the sequences of proteins in these tests, tags left out. Where a name states a change or a piece, a line headed by the entry shows the natural chain unless it says otherwise.
UniProt P49137, whole entry, looked up: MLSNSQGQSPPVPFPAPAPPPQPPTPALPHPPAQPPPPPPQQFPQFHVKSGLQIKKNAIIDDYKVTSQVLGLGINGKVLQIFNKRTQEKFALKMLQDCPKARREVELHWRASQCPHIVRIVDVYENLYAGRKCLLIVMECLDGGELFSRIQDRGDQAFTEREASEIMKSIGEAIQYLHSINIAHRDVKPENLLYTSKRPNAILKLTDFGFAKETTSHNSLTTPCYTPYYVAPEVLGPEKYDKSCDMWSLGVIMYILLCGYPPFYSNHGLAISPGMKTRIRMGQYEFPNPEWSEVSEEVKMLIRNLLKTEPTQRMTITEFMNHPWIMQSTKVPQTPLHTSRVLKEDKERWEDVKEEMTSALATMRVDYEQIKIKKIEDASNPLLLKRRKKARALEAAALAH
UniProt Q9BUB5: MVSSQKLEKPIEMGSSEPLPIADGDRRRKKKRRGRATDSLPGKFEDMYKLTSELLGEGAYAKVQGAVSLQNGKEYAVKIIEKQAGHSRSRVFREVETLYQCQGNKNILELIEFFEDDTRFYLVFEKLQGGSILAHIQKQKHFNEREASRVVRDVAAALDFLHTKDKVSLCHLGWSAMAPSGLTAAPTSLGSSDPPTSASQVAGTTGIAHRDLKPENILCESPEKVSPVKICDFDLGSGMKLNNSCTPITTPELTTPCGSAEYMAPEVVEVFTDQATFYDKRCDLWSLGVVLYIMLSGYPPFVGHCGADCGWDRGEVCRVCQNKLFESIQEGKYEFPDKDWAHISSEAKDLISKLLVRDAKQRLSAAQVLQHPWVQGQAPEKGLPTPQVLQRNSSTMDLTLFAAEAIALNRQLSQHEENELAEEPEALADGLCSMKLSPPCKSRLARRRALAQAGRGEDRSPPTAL
UniProt P09619, whole entry: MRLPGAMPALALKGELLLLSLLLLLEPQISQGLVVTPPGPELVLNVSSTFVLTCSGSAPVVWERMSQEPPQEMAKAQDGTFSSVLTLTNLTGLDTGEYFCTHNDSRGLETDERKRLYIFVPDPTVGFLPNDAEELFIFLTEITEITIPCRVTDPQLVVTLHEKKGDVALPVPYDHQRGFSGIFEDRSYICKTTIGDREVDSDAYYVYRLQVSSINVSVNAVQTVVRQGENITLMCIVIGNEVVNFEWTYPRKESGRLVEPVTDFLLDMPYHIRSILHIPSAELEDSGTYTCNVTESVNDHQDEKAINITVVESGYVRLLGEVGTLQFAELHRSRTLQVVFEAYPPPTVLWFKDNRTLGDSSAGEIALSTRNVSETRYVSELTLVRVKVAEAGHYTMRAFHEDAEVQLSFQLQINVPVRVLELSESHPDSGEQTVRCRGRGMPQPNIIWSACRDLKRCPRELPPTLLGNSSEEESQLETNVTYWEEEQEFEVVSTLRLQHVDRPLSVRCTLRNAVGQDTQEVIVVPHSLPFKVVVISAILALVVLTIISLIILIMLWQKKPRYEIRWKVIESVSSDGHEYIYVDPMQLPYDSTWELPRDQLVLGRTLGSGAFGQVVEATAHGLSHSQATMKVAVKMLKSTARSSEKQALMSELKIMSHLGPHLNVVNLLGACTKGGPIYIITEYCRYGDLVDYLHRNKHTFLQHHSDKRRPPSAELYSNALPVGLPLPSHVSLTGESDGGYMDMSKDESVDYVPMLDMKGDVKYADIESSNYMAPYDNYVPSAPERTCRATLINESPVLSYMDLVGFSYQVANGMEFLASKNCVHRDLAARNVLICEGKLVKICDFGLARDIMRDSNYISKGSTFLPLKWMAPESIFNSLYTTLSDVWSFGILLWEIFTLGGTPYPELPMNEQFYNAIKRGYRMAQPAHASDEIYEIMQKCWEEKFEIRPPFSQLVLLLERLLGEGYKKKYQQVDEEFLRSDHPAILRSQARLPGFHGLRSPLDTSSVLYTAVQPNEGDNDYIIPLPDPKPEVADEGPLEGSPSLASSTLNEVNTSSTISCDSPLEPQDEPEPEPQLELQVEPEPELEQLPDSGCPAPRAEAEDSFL
UniProt O15530: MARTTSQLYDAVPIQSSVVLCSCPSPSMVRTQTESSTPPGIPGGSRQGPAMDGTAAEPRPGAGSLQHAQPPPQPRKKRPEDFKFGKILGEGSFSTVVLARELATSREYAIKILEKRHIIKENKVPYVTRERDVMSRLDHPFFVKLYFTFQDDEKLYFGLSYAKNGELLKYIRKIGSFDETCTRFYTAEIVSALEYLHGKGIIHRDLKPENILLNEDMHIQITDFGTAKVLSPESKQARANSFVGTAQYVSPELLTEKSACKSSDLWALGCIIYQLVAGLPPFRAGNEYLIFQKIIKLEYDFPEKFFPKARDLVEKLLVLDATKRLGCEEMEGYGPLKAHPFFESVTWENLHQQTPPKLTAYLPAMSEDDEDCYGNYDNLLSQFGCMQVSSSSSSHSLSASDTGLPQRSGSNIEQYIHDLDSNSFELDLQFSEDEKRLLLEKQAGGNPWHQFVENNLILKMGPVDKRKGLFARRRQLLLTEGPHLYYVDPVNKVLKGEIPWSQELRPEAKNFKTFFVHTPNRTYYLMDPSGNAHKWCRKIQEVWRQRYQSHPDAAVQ
UniProt P42356, whole entry, looked up: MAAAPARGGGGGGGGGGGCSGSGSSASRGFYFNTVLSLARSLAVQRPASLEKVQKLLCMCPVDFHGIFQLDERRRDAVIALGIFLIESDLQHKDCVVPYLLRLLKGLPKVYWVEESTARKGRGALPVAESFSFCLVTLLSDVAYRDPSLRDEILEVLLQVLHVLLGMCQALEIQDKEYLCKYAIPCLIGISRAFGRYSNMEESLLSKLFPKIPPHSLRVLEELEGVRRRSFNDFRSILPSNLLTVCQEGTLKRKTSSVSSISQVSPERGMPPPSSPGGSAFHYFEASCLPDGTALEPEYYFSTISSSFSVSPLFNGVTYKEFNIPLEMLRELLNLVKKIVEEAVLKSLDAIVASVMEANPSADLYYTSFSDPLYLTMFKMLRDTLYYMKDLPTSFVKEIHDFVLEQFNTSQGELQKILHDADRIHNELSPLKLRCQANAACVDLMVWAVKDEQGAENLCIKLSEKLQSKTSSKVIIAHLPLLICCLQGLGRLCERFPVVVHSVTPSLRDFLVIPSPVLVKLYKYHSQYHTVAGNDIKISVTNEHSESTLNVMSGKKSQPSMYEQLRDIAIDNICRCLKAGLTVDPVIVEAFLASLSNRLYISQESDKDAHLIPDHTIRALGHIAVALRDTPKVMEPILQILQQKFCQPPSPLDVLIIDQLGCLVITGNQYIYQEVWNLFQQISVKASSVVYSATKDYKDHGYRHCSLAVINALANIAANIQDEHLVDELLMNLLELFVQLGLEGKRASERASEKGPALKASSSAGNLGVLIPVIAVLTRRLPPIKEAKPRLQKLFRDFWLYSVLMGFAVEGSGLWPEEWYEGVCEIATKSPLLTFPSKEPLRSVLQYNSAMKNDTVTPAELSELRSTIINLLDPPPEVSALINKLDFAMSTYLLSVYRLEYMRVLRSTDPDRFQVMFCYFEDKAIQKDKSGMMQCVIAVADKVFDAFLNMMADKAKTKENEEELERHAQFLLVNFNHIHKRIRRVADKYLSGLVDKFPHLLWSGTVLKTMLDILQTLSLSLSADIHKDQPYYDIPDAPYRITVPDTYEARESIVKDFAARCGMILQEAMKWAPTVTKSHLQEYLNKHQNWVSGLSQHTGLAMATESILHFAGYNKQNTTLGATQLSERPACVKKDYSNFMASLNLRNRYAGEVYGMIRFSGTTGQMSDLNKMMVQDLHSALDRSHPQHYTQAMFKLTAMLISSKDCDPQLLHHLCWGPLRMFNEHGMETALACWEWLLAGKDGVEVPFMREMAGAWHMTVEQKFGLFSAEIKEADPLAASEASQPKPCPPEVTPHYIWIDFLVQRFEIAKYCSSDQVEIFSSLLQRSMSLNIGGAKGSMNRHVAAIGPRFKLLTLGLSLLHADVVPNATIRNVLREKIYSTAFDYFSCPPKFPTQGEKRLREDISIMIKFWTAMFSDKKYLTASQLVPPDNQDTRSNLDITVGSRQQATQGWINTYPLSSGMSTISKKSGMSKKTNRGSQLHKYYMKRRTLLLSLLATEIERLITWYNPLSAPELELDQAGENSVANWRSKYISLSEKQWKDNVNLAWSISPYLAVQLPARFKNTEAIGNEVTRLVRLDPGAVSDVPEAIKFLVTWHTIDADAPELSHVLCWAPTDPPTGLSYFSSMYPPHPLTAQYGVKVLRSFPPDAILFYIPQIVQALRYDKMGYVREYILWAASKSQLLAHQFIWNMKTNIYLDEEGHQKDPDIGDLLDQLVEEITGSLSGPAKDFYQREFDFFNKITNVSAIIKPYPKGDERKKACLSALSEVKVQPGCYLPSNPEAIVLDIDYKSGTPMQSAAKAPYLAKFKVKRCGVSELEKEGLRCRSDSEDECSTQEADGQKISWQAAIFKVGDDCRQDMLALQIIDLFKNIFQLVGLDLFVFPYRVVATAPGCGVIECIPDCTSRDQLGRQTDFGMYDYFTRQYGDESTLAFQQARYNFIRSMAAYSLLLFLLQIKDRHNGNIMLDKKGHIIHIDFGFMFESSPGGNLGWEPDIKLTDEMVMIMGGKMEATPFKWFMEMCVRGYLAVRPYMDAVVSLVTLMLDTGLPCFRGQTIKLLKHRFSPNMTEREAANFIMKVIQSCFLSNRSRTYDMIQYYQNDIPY
UniProt Q9UBF8: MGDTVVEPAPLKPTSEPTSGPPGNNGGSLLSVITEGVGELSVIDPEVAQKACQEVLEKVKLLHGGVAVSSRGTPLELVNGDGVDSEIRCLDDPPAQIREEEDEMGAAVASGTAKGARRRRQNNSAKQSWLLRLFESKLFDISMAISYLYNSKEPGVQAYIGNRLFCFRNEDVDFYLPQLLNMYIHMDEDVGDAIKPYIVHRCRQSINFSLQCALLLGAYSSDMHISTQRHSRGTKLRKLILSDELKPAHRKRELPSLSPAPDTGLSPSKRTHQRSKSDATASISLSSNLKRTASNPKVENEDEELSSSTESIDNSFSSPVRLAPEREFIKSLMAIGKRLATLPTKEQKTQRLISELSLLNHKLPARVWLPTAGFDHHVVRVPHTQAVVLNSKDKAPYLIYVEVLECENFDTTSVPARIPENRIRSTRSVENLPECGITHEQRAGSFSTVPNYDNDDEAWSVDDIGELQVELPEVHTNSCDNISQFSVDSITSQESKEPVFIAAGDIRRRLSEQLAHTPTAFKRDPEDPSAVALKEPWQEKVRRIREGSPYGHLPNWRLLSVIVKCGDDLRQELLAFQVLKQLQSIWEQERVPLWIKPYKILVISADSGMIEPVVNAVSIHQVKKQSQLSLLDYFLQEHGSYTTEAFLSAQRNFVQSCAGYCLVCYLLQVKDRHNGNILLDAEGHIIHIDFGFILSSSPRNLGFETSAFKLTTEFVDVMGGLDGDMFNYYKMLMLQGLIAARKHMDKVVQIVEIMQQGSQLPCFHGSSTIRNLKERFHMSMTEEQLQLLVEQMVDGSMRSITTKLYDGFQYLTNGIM
UniProt Q14289, whole entry, looked up: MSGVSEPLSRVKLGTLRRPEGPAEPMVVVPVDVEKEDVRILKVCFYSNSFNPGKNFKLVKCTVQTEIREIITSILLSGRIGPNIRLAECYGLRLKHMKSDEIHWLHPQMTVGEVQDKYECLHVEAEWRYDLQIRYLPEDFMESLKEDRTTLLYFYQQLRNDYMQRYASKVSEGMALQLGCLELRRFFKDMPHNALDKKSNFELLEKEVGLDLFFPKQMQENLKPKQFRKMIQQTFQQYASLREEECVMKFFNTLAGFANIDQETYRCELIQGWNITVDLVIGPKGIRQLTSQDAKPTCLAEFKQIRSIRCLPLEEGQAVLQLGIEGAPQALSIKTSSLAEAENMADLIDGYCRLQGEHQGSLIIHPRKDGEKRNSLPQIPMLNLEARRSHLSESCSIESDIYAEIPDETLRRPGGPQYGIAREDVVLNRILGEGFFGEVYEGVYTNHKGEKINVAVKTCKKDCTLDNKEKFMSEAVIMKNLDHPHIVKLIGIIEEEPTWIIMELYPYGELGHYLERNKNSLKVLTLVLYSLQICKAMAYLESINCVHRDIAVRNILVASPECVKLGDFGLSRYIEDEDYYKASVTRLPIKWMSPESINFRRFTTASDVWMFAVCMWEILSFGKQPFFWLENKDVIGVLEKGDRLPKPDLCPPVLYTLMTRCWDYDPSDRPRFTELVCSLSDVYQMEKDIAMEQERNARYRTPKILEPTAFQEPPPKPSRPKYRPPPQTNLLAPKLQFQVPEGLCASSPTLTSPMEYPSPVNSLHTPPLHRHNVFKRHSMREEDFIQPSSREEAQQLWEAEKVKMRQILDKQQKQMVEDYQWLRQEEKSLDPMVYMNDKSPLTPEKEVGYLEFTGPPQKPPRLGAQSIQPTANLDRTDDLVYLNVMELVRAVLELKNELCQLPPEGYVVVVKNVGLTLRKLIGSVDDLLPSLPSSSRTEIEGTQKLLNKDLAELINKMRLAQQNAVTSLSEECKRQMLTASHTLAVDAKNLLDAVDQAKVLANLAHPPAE

Columns and labels:
Assay in all cases: kinase-Nluc reporter destabilization hit call (1 = scored as downregulated) (binary); higher = compound decreases kinase abundance
Conditions in all cases: K562; 2-18 h
MAPK1 = MAPK1 (UniProt P28482)
MAPK4 = MAPK4 (UniProt P31152)
MAPKAPK2 = MAPKAPK2 (UniProt P49137)
MKNK1 = MKNK1 (UniProt Q9BUB5)
NTRK2 = NTRK2 (UniProt Q16620)
NTRK3 = NTRK3 (UniProt Q16288)
PAK4 = PAK4 (UniProt O96013)
PBK = PBK (UniProt Q96KB5)
PDGFRB = PDGFRB (UniProt P09619)
PDK1 = PDK1 (UniProt Q15118)
PDPK1 = PDPK1 (UniProt O15530)
PIK4CA = PIK4CA (UniProt P42356)
PIK4CB = PIK4CB (UniProt Q9UBF8)
PLK1 = PLK1 (UniProt P53350)
PRKAA1 = PRKAA1 (UniProt Q13131)
PRKCA = PRKCA (UniProt P17252)
PTK2 = PTK2 (UniProt Q05397)
PTK2B = PTK2B (UniProt Q14289)
RAF1 = RAF1 (UniProt P04049)
[1] = biological target: RAF1_S257L (clone: RAF1_mut) (UniProt P04049)

Measured: kinase-Nluc reporter destabilization hit call

COc1c(Nc2ncc(Cl)c(N[C@H]3[C@@H](C(N)=O)[C@@H]4C=C[C@H]3C4)n2)ccc2c1CC[C@@H](N1CCOCC1)CC2 (10 µM)
inactive: MAPK1 = 0 | MAPK4 = 0 | MAPKAPK2 = 0 | MKNK1 = 0 | NTRK2 = 0 | NTRK3 = 0 | PAK4 = 0 | PBK 0 | PDGFRB 0 | PDK1 = 0 | PDPK1 = 0 | PIK4CA 0 | PIK4CB 0 | PLK1 = 0 | PRKAA1 = 0 | PRKCA 0 | PTK2 = 0 | PTK2B 0 | RAF1 = 0 | [1] 0

CC(C)Cn1ncc2cc(Oc3ccc(F)cc3F)c(C(=O)NCCN(C)C)cc21 [p38α inhibitor 1] (10 µM)
inactive: MAPK1 = 0 | MAPK4 = 0 | MAPKAPK2 = 0 | MKNK1 = 0 | NTRK2 = 0 | NTRK3 = 0 | PAK4 = 0 | PBK 0 | PDGFRB 0 | PDK1 = 0 | PDPK1 = 0 | PIK4CA 0 | PIK4CB 0 | PLK1 = 0 | PRKAA1 = 0 | PRKCA 0 | PTK2 = 0 | PTK2B 0 | RAF1 = 0 | [1] 0

CC(C1CC1)n1cnc2c(NCc3cccc(C(F)(F)F)c3)nc(NCCN(C)C)nc21 (stereo not given) (10 µM)
inactive: MAPK1 = 0 | MAPK4 = 0 | MAPKAPK2 = 0 | MKNK1 = 0 | NTRK2 = 0 | NTRK3 = 0 | PAK4 = 0 | PBK 0 | PDGFRB 0 | PDK1 = 0 | PDPK1 = 0 | PIK4CA 0 | PIK4CB 0 | PLK1 = 0 | PRKAA1 = 0 | PRKCA 0 | PTK2 = 0 | PTK2B 0 | RAF1 = 0 | [1] 0

CCNC(=O)Nc1ccc(-c2nc3c(c(N4CCOC[C@@H]4C)n2)CCN(C2COC2)C3)cc1 (2.5 µM)
inactive: MAPK1 = 0 | MAPK4 = 0 | MAPKAPK2 = 0 | MKNK1 = 0 | NTRK2 = 0 | NTRK3 = 0 | PAK4 = 0 | PBK 0 | PDGFRB 0 | PDK1 = 0 | PDPK1 = 0 | PIK4CA 0 | PIK4CB 0 | PLK1 = 0 | PRKAA1 = 0 | PRKCA 0 | PTK2 = 0 | PTK2B 0 | RAF1 = 0 | [1] 0

O=CN1CCN(c2ccc(C=C3C(=O)Nc4ccccc43)cc2)CC1 (10 µM)
inactive: MAPK1 = 0 | MAPK4 = 0 | MAPKAPK2 = 0 | MKNK1 = 0 | NTRK2 = 0 | NTRK3 = 0 | PAK4 = 0 | PBK 0 | PDGFRB 0 | PDK1 = 0 | PDPK1 = 0 | PIK4CA 0 | PIK4CB 0 | PLK1 = 0 | PRKAA1 = 0 | PRKCA 0 | PTK2 = 0 | PTK2B 0 | RAF1 = 0 | [1] 0

CNCCOc1ccccc1C1(Nc2nccn(-c3cc(C(=O)NC4CC4)cc(F)c3C)c2=O)CC1 (10 µM)
inactive: MAPK1 = 0 | MAPK4 = 0 | MAPKAPK2 = 0 | MKNK1 = 0 | NTRK2 = 0 | NTRK3 = 0 | PAK4 = 0 | PBK 0 | PDGFRB 0 | PDK1 = 0 | PDPK1 = 0 | PIK4CA 0 | PIK4CB 0 | PLK1 = 0 | PRKAA1 = 0 | PRKCA 0 | PTK2 = 0 | PTK2B 0 | RAF1 = 0 | [1] 0

Cc1nc2c(NCc3cccc(S(C)(=O)=O)c3)nccn2c1-c1ccc(O)c(F)c1 (10 µM)
inactive: MAPK1 = 0 | MAPK4 = 0 | MAPKAPK2 = 0 | MKNK1 = 0 | NTRK2 = 0 | NTRK3 = 0 | PAK4 = 0 | PBK 0 | PDGFRB 0 | PDK1 = 0 | PDPK1 = 0 | PIK4CA 0 | PLK1 = 0 | PRKAA1 = 0 | PRKCA 0 | PTK2 = 0 | PTK2B 0 | RAF1 = 0 | [1] 0

O=C(NC[C@H](O)CO)c1ccncc1Nc1ccc(I)cc1F [Pimasertib] (10 µM)
inactive: MAPK1 = 0 | MAPK4 = 0 | MAPKAPK2 = 0 | MKNK1 = 0 | NTRK2 = 0 | NTRK3 = 0 | PAK4 = 0 | PBK 0 | PDGFRB 0 | PDK1 = 0 | PDPK1 = 0 | PIK4CA 0 | PIK4CB 0 | PLK1 = 0 | PRKAA1 = 0 | PRKCA 0 | PTK2 = 0 | PTK2B 0 | RAF1 = 0 | [1] 0

CNC(=O)CN1CCC(Oc2cc3c(Nc4cccc(Cl)c4F)ncnc3cc2OC)CC1 [Sapitinib] (10 µM)
inactive: MAPK1 = 0 | MAPK4 = 0 | MAPKAPK2 = 0 | MKNK1 = 0 | NTRK2 = 0 | NTRK3 = 0 | PAK4 = 0 | PBK 0 | PDGFRB 0 | PDK1 = 0 | PDPK1 = 0 | PIK4CA 0 | PIK4CB 0 | PLK1 = 0 | PRKAA1 = 0 | PRKCA 0 | PTK2 = 0 | PTK2B 0 | RAF1 = 0 | [1] 0

CC(C)n1c(CO)nc2c(F)cc(-c3nc(Nc4ccc(CN5CCNCC5)cn4)ncc3F)cc21 (10 µM)
inactive: MAPK1 = 0 | MAPK4 = 0 | MAPKAPK2 = 0 | MKNK1 = 0 | NTRK2 = 0 | NTRK3 = 0 | PAK4 = 0 | PBK 0 | PDGFRB 0 | PDK1 = 0 | PDPK1 = 0 | PIK4CA 0 | PIK4CB 0 | PLK1 = 0 | PRKAA1 = 0 | PRKCA 0 | PTK2 = 0 | PTK2B 0 | RAF1 = 0 | [1] 0

CN(C)c1ccc(/C=C2\C(=O)Nc3ccccc32)c2ccccc12 (10 µM)
inactive: MAPK1 = 0 | MAPK4 = 0 | MAPKAPK2 = 0 | MKNK1 = 0 | NTRK2 = 0 | NTRK3 = 0 | PAK4 = 0 | PBK 0 | PDGFRB 0 | PDK1 = 0 | PDPK1 = 0 | PIK4CA 0 | PIK4CB 0 | PLK1 = 0 | PRKAA1 = 0 | PRKCA 0 | PTK2 = 0 | PTK2B 0 | RAF1 = 0 | [1] 0

CO[C@@H]1[C@H](N(C)C(=O)c2ccccc2)C[C@H]2O[C@]1(C)n1c3ccccc3c3c4c(c5c6ccccc6n2c5c31)C(=O)NC4 [Midostaurin] (2.5 µM)
inactive: MAPK1 = 0 | MAPK4 = 0 | MAPKAPK2 = 0 | MKNK1 = 0 | NTRK2 = 0 | PAK4 = 0 | PBK 0 | PDGFRB 0 | PDK1 = 0 | PDPK1 = 0 | PIK4CA 0 | PIK4CB 0 | PLK1 = 0 | PRKAA1 = 0 | PRKCA 0 | PTK2 = 0 | PTK2B 0 | RAF1 = 0 | [1] 0

No new results follow: 2 of the compounds above.
CN(C)c1ccc(/C=C2\C(=O)Nc3ccccc32)c2ccccc12 (10 µM)
inactive: MAPK1 = 0 | MAPK4 = 0 | MAPKAPK2 = 0 | MKNK1 = 0 | NTRK2 = 0 | NTRK3 = 0 | PAK4 = 0 | PBK 0 | PDGFRB 0 | PDK1 = 0 | PDPK1 = 0 | PIK4CA 0 | PIK4CB 0 | PLK1 = 0 | PRKAA1 = 0 | PRKCA 0 | PTK2 = 0 | PTK2B 0 | RAF1 = 0 | [1] 0

CO[C@@H]1[C@H](N(C)C(=O)c2ccccc2)C[C@H]2O[C@]1(C)n1c3ccccc3c3c4c(c5c6ccccc6n2c5c31)C(=O)NC4 [Midostaurin] (2.5 µM)
inactive: MAPK1 = 0 | MAPK4 = 0 | MAPKAPK2 = 0 | MKNK1 = 0 | NTRK2 = 0 | PAK4 = 0 | PBK 0 | PDGFRB 0 | PDK1 = 0 | PDPK1 = 0 | PIK4CA 0 | PIK4CB 0 | PLK1 = 0 | PRKAA1 = 0 | PRKCA 0 | PTK2 = 0 | PTK2B 0 | RAF1 = 0 | [1] 0

The list goes on:

NC(=O)c1sc2c([N+](=O)[O-])cc(C(F)(F)F)cc2[n+]1[O-] [Cyclapolin 9] (10 µM)
inactive: MAPK1 = 0 | MAPK4 = 0 | MAPKAPK2 = 0 | MKNK1 = 0 | NTRK2 = 0 | NTRK3 = 0 | PAK4 = 0 | PBK 0 | PDGFRB 0 | PDK1 = 0 | PDPK1 = 0 | PIK4CA 0 | PIK4CB 0 | PRKAA1 = 0 | PRKCA 0 | PTK2 = 0 | PTK2B 0 | RAF1 = 0 | [1] 0

N#Cc1cnc(Nc2cc(NC[C@H]3CNCCO3)c(C(F)(F)F)cn2)cn1 (10 µM)
inactive: MAPK1 = 0 | MAPK4 = 0 | MAPKAPK2 = 0 | MKNK1 = 0 | NTRK2 = 0 | NTRK3 = 0 | PAK4 = 0 | PBK 0 | PDGFRB 0 | PDK1 = 0 | PDPK1 = 0 | PIK4CA 0 | PIK4CB 0 | PLK1 = 0 | PRKAA1 = 0 | PRKCA 0 | PTK2 = 0 | PTK2B 0 | RAF1 = 0 | [1] 0

CN(C)c1cc[n+](Cc2ccc(OCCOc3ccc(C[n+]4ccc(N(C)C)cc4)cc3)cc2)cc1 (10 µM)
inactive: MAPK1 = 0 | MAPK4 = 0 | MAPKAPK2 = 0 | MKNK1 = 0 | NTRK2 = 0 | NTRK3 = 0 | PAK4 = 0 | PBK 0 | PDGFRB 0 | PDK1 = 0 | PDPK1 = 0 | PIK4CA 0 | PIK4CB 0 | PLK1 = 0 | PRKAA1 = 0 | PRKCA 0 | PTK2 = 0 | PTK2B 0 | RAF1 = 0 | [1] 0

Cc1cc2c(F)c(Oc3ncnn4cc(OC[C@@H](C)OC(=O)[C@H](C)N)c(C)c34)ccc2[nH]1 [Brivanib (alaninate)] (10 µM)
inactive: MAPK1 = 0 | MAPK4 = 0 | MAPKAPK2 = 0 | MKNK1 = 0 | NTRK2 = 0 | NTRK3 = 0 | PAK4 = 0 | PBK 0 | PDGFRB 0 | PDK1 = 0 | PDPK1 = 0 | PIK4CA 0 | PIK4CB 0 | PLK1 = 0 | PRKAA1 = 0 | PRKCA 0 | PTK2 = 0 | PTK2B 0 | RAF1 = 0 | [1] 0

COc1ccc(CN2CCC(c3ccc4nc(C(=O)N5CCN(Cc6ccc(C(F)(F)F)cc6)CC5)[nH]c4c3)CC2)cn1 (2.5 µM)
inactive: MAPK1 = 0 | MAPK4 = 0 | MAPKAPK2 = 0 | MKNK1 = 0 | NTRK2 = 0 | NTRK3 = 0 | PAK4 = 0 | PBK 0 | PDGFRB 0 | PDK1 = 0 | PDPK1 = 0 | PIK4CA 0 | PIK4CB 0 | PLK1 = 0 | PRKCA 0 | PTK2 = 0 | PTK2B 0 | RAF1 = 0 | [1] 0

CNCc1ccccc1Sc1cccc2ccccc12 [IFN alpha-IFNAR-IN-1 (hydrochloride)] (10 µM)
inactive: MAPK1 = 0 | MAPK4 = 0 | MAPKAPK2 = 0 | MKNK1 = 0 | NTRK3 = 0 | PAK4 = 0 | PBK 0 | PDGFRB 0 | PDK1 = 0 | PDPK1 = 0 | PIK4CA 0 | PIK4CB 0 | PLK1 = 0 | PRKAA1 = 0 | PRKCA 0 | PTK2 = 0 | PTK2B 0 | RAF1 = 0 | [1] 0
